From patent US11492369 (dated 2022)

Test: general procedure: Fmoc solid-phase peptide synthesis; Trt(2-Cl) (2-chlorotrityl) resin; DIC/HOOBt; DIC/HOAt
Settings: whole synthesis; for crude purity (method not given): scale 100 mg resin; for crude LC-MS purity: LCMS (UV area), scale 1.0 g resin

With Fmoc-Ser(tBu)-MePhe-MeVal-Asp-pip the “crude purity (method not given)” value (LC UV area) was 97.91% (LC UVarea), the “crude LC-MS purity” value (run 1) was 99.92% and the “crude LC-MS purity” value (run 2) was 99.93%. The “crude purity (method not given)” value (UV area) was 89% (UV area).
